Measurements reported in paper PMC9037289.
No constants are given. Whether binding was seen depends on the method and setting. In cells and extracts the contact can be indirect. A result given as binding can be weak or reduced; the word gives no strength. Tags and fused reporters may be left off the sequences shown.

Target: EG1-eGFP (Rhizoctonia solani AG1-IA)
Test: co-IP; co-expression in N. benthamiana leaves, NP-40 lysis buffer, anti-GFP agarose beads, 4°C 8 h, wash 10 mM Tris-HCl pH 7.5, 0.5 mM EDTA, 150 mM NaCl; blot with anti-HA and anti-GFP

B1: OsGABA-T-HA (enzyme, UniProt Q7XN11 48-516)
chain: SSVPSPQYNSTEENGFKGHGMLAPFTAGWQSTDVHPLVIERSEGSYVYDIDGKKYLDSLAGLWCTALGGSEPRLVKAATEQLHKLPFYHSFWNRTTKPSLDLAKELLSMFTAREMGKVFFTNSGSEANDSQVKLVWYYNNALGRPDKKKFIARSKSYHGSTLISASLSGLPALHQKFDLPAPFVLHTDCPHYWRFHLPGETEEEFATRLANNLEELILKEGPETIAAFIAEPVMGAGGVIPPPKTYFEKVQAIVKKYDILFIADEVITAFGRLGTMFGSDMYNIKPDLVSMAKALSSAYVPIGAIMVSPEISDVIHSQSNKLGSFAHGFTYSGHPVACAVAIEALKIYQERNIPDHVKQISPRFQEGVKAFAGSPIVGEIRGVGLILGTEFADNKSPNDPFPAEWGVGAIFGAECQKRGMLVRVAGDNIMMSPPLIMTPDEVEELVSIYGDALKATEERVAELKSKKNN
binding: binds weakly
